Source: article PMC7648202
Results are given in words; binding and its absence hold for the method and conditions named. Some binding calls cover weakened binding; strength is not graded here. Where a sequence is shown, tags or fusion partners need not be part of it.

Molecular target: T1, mature TCMP‐2 protein fused to the GAL4 DNA‐binding domain (pGBKT7‐BD) (tomato (Solanum lycopersicum)) (UniProt P14903)
T1 sequence: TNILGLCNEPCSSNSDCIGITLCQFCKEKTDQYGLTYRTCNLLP
Experiment: two-hybrid; Matchmaker Gold system; bait GAL4 BD fusion in Y2H Gold, prey AD fusions in Y187, mated; 30°C for 3 days; selection on SD/-Leu/-Trp/-His/-Ade/X-Gal/Aureobasidin A plus 10 mM 3-AT

B1: AtmiP1b full‐length ORF fused to the Gal4‐activation domain (pGADT7‐AD) (protein, UniProt Q9LRM4 1-121)
chain: MCRGLNNEESRRSDGGGCRSLCTRPSVPVRCELCDGDASVFCEADSAFLCRKCDRWVHGANFLAWRHVRRVLCTSCQKLTRRCLVGDHDFHVVLPSVTTVGETTVENRSEQDNHEVPFVFL
For B1, the binding was “binds”.
